Reference: the supplement of paper PMC8732350
“And” between values parts separate entries of the source, which are not always exact repeats. Equal entries are not always repeated. Structures can show the parent of a compound that is named as a salt. ± gives the standard deviation of the averaged measurements. Some of the results follow. Single values are uncertain here, since repeats match poorly.

system: A549; assay: surface PD-L1 immunofluorescence intensity relative to IFN-gamma-only control (ratio); higher = more PD-L1 expression; details: 10 µM; exposure time 24 h; IFN-gamma 100 ng/mL

Row | SMILES | surface PD-L1 immunofluorescence intensity
1 | OC[C@H]1O[C@@H](n2cnc3c(NC4CCCC4)ncnc32)[C@H](O)[C@@H]1O [N6-Cyclopentyladenosine] | 0.968
2 | CCN(C(=O)c1c(O)c2c(Cl)cccc2n(C)c1=O)c1ccccc1 | 0.986
3 | CN1CC(=O)N2[C@H](c3ccc4c(c3)OCO4)c3[nH]c4ccccc4c3C[C@@H]2C1=O [Tadalafil (Cialis)] | 1.09
4 | CC(C)NCC(O)COc1ccc(CCOCC2CC2)cc1 (stereo not drawn) [Betaxolol hydrochloride] | 0.917
5 | CC(=O)[C@@]1(O)CC[C@H]2[C@@H]3C[C@H](C)C4=CC(=O)C=C[C@]4(C)[C@@]3(F)[C@@H](O)C[C@@]21C [Fluorometholone] | 0.883
6 | Cc1c(C(=O)NN2CCCCC2)nn(-c2ccc(Cl)cc2Cl)c1-c1ccc(I)cc1 | 1.05
7 | COc1cc(C(=O)NCc2ccc(OCCN(C)C)cc2)cc(OC)c1OC [Trimethobenzamide hydrochloride] | 0.883
8 | CCCN1CCCC[C@H]1C(=O)Nc1c(C)cccc1C [Ropivacaine HCl] | 1.01
9 | Cc1ccc(S(=O)(=O)N[C@@H](Cc2ccccc2)C(=O)CCl)cc1 | 1.04
10 | CC(C)(OCc1nn(Cc2ccccc2)c2ccccc12)C(=O)O [Bindarit] | 0.975
11 | NC1CCN(c2cccc(Cl)n2)CC1 | 0.979
12 | Cc1cccc(-c2[nH]c(C(C)(C)C)nc2-c2ccc3c(c2)OCO3)n1 | 0.995
13 | CC(NC(=O)c1ccccc1/N=C/c1c(O)ccc2ccccc12)c1ccccc1 (stereo not drawn) [Sirtinol] | 1.05 ± 0.021
14 | CCC[C@@H]1C[C@@H](C(=O)N[C@@H]([C@H]2O[C@H](SC)[C@H](O)[C@@H](O)[C@H]2O)[C@H](C)Cl)N(C)C1 [Clindamycin HCl (Dalacin)] | 0.866
15 | CCC[C@@H]1C[C@@H](C(=O)N[C@@H]([C@H]2O[C@H](SC)[C@H](O)[C@@H](O)[C@H]2O)[C@H](C)Cl)N(C)C1 [Clindamycin hydrochloride] | 0.918
16 | C=C1/C(=C\C=C2/CCC[C@]3(C)[C@@H]([C@H](C)CCCC(C)C)CC[C@@H]23)C[C@@H](O)C[C@@H]1O [Alfacalcidol] | 1.03
17 | CC(=O)N[C@@H](Cc1c[nH]c2ccccc12)C(=O)OCc1cc(C(F)(F)F)cc(C(F)(F)F)c1 | 0.906
18 | Cc1ccc2c(c1)c1c3n2CCNC3CCC1 (stereo not drawn) [Pirlindole mesylate] | 1.03 ± 0.058
19 | CCN(CC)CCNC(=O)c1cc(Cl)c(N)cc1OC [Metoclopramide monohydrochloride] | 0.948
20 | CC(C)(CO)C(O)C(=O)NCCCO (stereo not drawn) [Panthenol (D)] | 0.851
21 | CN(C)C/C=C(/c1ccc(Br)cc1)c1cccnc1 [Zimelidine dihydrochloride] | 0.947
22 | CN(C)C/C=C(/c1ccc(Br)cc1)c1cccnc1 [Zimelidine dihydrochloride monohydrate] | 0.96
23 | CCOc1ccc2ccccc2c1C(=O)N[C@@H]1C(=O)N2[C@@H]1SC(C)(C)[C@@H]2C(=O)O [Nafcillin sodium salt monohydrate] | 0.933
24 | Cn1cnc2c1c(=O)[nH]c(=O)n2C [Theobromine] | 1.07

Given as comma-separated lines: part of the list above
Row,SMILES,surface PD-L1 immunofluorescence intensity
2,CCN(C(=O)c1c(O)c2c(Cl)cccc2n(C)c1=O)c1ccccc1,0.986
3,CN1CC(=O)N2[C@H](c3ccc4c(c3)OCO4)c3[nH]c4ccccc4c3C[C@@H]2C1=O [Tadalafil (Cialis)],1.09
4,CC(C)NCC(O)COc1ccc(CCOCC2CC2)cc1 (stereo not drawn) [Betaxolol hydrochloride],0.917
5,CC(=O)[C@@]1(O)CC[C@H]2[C@@H]3C[C@H](C)C4=CC(=O)C=C[C@]4(C)[C@@]3(F)[C@@H](O)C[C@@]21C [Fluorometholone],0.883
6,Cc1c(C(=O)NN2CCCCC2)nn(-c2ccc(Cl)cc2Cl)c1-c1ccc(I)cc1,1.05
7,COc1cc(C(=O)NCc2ccc(OCCN(C)C)cc2)cc(OC)c1OC [Trimethobenzamide hydrochloride],0.883
8,CCCN1CCCC[C@H]1C(=O)Nc1c(C)cccc1C [Ropivacaine HCl],1.01
9,Cc1ccc(S(=O)(=O)N[C@@H](Cc2ccccc2)C(=O)CCl)cc1,1.04
10,CC(C)(OCc1nn(Cc2ccccc2)c2ccccc12)C(=O)O [Bindarit],0.975

(cont.)

Row | SMILES | surface PD-L1 immunofluorescence intensity
25 | CC1=NN(c2ccccc2)C(=O)C1 | 0.982 ± 0.031
26 | Nc1ccccc1S(N)(=O)=O [2-Aminobenzenesulfonamide] | 1.01
27 | COc1ccccc1Oc1c(NS(=O)(=O)c2ccc(C(C)(C)C)cc2)nc(-c2ncccn2)nc1OCCO [Bosentan] | 1.03
28 | C[S+]([O-])c1ccc(-c2nc(-c3ccc(F)cc3)c(-c3ccncc3)[nH]2)cc1 (stereo not drawn) | 0.957 and 1.04
29 | O=C(/C=C/c1ccc(O)cc1)CC(=O)/C=C/c1ccc(O)cc1 [bis-demethoxycurcumin] | 0.971
30 | CC1=CC(=O)C(C(C)C)=CC1=O [Thymoquinone] | 0.982
31 | CN(C)CCC=C1c2ccccc2COc2ccccc21 [Doxepin hydrochloride] | 0.965 ± 0.075
32 | CC(C)[N+](C)(CCOC(=O)C1c2ccccc2Oc2ccccc21)C(C)C [Propantheline bromide] | 1.02
33 | CN1CCC[C@@H]1Cc1c[nH]c2ccc(CCS(=O)(=O)c3ccccc3)cc12 [Eletriptan hydrobromide] | 1.02
34 | N[C@@H](C(=O)N[C@@H]1C(=O)N2C(C(=O)O)=C(Cl)CC[C@H]12)c1ccccc1 [Loracarbef] | 0.995
35 | Cc1onc(-c2ccccc2Cl)c1C(=O)N[C@@H]1C(=O)N2[C@@H]1SC(C)(C)[C@@H]2C(=O)O [Cloxacillin sodium (Cloxacap)] | 0.885
36 | Cc1onc(-c2ccccc2Cl)c1C(=O)N[C@@H]1C(=O)N2[C@@H]1SC(C)(C)[C@@H]2C(=O)O [Cloxacillin sodium salt] | 1.01
37 | C#Cc1cccc(Nc2ncnc3cc(OCCOC)c(OCCOC)cc23)c1 [Erlotinib] | 0.89
38 | COc1ccc(Cn2ccc3ccc(C(=O)NO)cc32)cc1 | 1.03
39 | COC(=O)C1=CO[C@@H](O[C@@H]2O[C@H](CO)[C@@H](O)[C@H](O)[C@H]2O)[C@@H]2C(CO)=CC[C@H]12 [Geniposide] | 1.02
40 | N#Cc1ccc(C2CCCc3cncn32)cc1 (stereo not drawn) [Fadrozole hydrochloride] | 0.846
41 | NS(=O)(=O)c1cc2c(cc1Cl)NC(C(Cl)Cl)NS2(=O)=O (stereo not drawn) [Trichlormethiazide] | 0.992
42 | CN[C@@H]1[C@H](O)[C@H](NC)[C@H]2O[C@@]3(O)C(=O)C[C@@H](C)O[C@H]3O[C@@H]2[C@H]1O [Spectinomycin dihydrochloride] | 0.979
43 | Cc1c(-c2ccccc2)oc2c(C(=O)OCCN3CCCCC3)cccc2c1=O [Flavoxate hydrochloride] | 0.868
44 | CCCCCCOC(=O)NC(=N)c1ccc(NCc2nc3cc(C(=O)N(CCC(=O)OCC)c4ccccn4)ccc3n2C)cc1 [BIBR-1048 (Dabigatran etexilate, Pradaxa)] | 1.04
45 | CCCCCCCCCCCCCCCCCCCCCCO [Docosanol (Abreva)] | 1.08
46 | COc1ccc(O)cc1 [Mequinol] | 1.04
47 | CC(C)C[C@@H](C(=O)N[C@H](C(=O)OC1CCCC1)c1ccccc1)[C@H](O)C(=O)NO | 0.975
48 | CN[C@@H]1[C@@H](O[C@H]2O[C@H](CO)[C@@H](N)[C@H](O)[C@H]2O)OC2C[C@@H](N)[C@@H](O[C@H]3[C@H](O)[C@@H](O)[C@H](N)C[C@@H]3N)OC2[C@@H]1O (stereo partly drawn) [Apramycin] | 0.997
